Experimental data: PubChem BioAssay AID1159601 (NIAID, 2016)
Here is one part, drawn at random, of 756 deposited reagents. Of all reagents, 143 (19%) were called active. 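Calls include both lowered and raised reporter signal; each row is a single siRNA, not a gene summary; Pam3CSK4 dose not stated.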 Entries without a mark were called inactive. The numbers tell different reagents against one gene apart. Not given: the amount of reagent.

- Aim: 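Genes whose loss changes TNF reporter induction by lipopeptide in human macrophage-like cells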 (primary screen)
- System: human THP-1 reporter cells differentiated with PMA into macrophage-like cells
- Reagent: single siRNA against human genes
- Timing: ligand added 4 hours before read-out; cells assayed 48 to 72 hours after siRNA transfection
- Challenge: Pam3CSK4 (TLR2 ligand) for 4 hours; dose not given
- Measurement: 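TNF promoter dual-luciferase ratio measured 4 h after Pam3CSK4, converted to robust z-scores against negative controls and averaged across replicates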
- Scale: TNF reporter z-score: higher = stronger TNF promoter reporter activity
- Call rule: 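The depositor grades each siRNA by the size of its mean z-score in either direction, with steps at 1, 1.5, 2 and 2.5; active calls sit near -1.5 or below, or near 1.5 or above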
- Calls: active = clear change (up or down); inactive = little change

gene knocked down | reagent | TNF reporter z-score, replicate mean
ELK1 (GeneID 2002) | 1 | -1.63 (active)
ELK1 (GeneID 2002) | 2 | -2.68 (active)
ELK1 (GeneID 2002) | 3 | -2.01 (active)
ELK1 (GeneID 2002) | 4 | -0.98
ELK1 (GeneID 2002) | 5 | -0.644
ELK1 (GeneID 2002) | 6 | 0.203
TLR5 (GeneID 7100) | 1 | 0.309
TLR5 (GeneID 7100) | 2 | 1.67 (active)
TLR5 (GeneID 7100) | 3 | -1.21
TLR5 (GeneID 7100) | 4 | -0.712
TLR5 (GeneID 7100) | 5 | 0.374
TLR5 (GeneID 7100) | 6 | -1.53 (active)
MAPKAPK2 (GeneID 9261) | 1 | -1.03
MAPKAPK2 (GeneID 9261) | 2 | -0.506
MAPKAPK2 (GeneID 9261) | 3 | -0.615
MAPKAPK2 (GeneID 9261) | 4 | -0.473
MAPKAPK2 (GeneID 9261) | 5 | 0.737
MAPKAPK2 (GeneID 9261) | 6 | -0.957
PELI1 (GeneID 57162) | 1 | -0.536
PELI1 (GeneID 57162) | 2 | -0.0702
PELI1 (GeneID 57162) | 3 | 0.704
PELI1 (GeneID 57162) | 4 | -1.86 (active)
PELI1 (GeneID 57162) | 5 | 0.0905
PELI1 (GeneID 57162) | 6 | 0.547
MAP3K8 (GeneID 1326) | 1 | -1.91 (active)
MAP3K8 (GeneID 1326) | 2 | -2.72 (active)
MAP3K8 (GeneID 1326) | 3 | -2.89 (active)
MAP3K8 (GeneID 1326) | 4 | -1.02
MAP3K8 (GeneID 1326) | 5 | -2.47 (active)
MAP3K8 (GeneID 1326) | 6 | -0.736
IRAK2 (GeneID 3656) | 1 | 0.338
IRAK2 (GeneID 3656) | 2 | 1.3
IRAK2 (GeneID 3656) | 3 | -0.295
IRAK2 (GeneID 3656) | 4 | -0.3
IRAK2 (GeneID 3656) | 5 | -0.374
IRAK2 (GeneID 3656) | 6 | -0.527
AKT2 (GeneID 208) | 1 | -0.361
AKT2 (GeneID 208) | 2 | -0.557
AKT2 (GeneID 208) | 3 | 1.28
AKT2 (GeneID 208) | 4 | -0.176
AKT2 (GeneID 208) | 5 | 0.648
AKT2 (GeneID 208) | 6 | 1.8 (active)
CREBBP (GeneID 1387) | 1 | 0.29
CREBBP (GeneID 1387) | 2 | 0.877
CREBBP (GeneID 1387) | 3 | 1.29
CREBBP (GeneID 1387) | 4 | 0.761
CREBBP (GeneID 1387) | 5 | 0.385
CREBBP (GeneID 1387) | 6 | -0.221
IRAK4 (GeneID 51135) | 1 | -0.844
IRAK4 (GeneID 51135) | 2 | 0.507
IRAK4 (GeneID 51135) | 3 | 0.466
IRAK4 (GeneID 51135) | 4 | -0.0201
IRAK4 (GeneID 51135) | 5 | 0.316
IRAK4 (GeneID 51135) | 6 | -0.527
IRF7 (GeneID 3665) | 1 | -0.854
IRF7 (GeneID 3665) | 2 | -1.5
IRF7 (GeneID 3665) | 3 | 1.94 (active)
IRF7 (GeneID 3665) | 4 | -0.811
IRF7 (GeneID 3665) | 5 | -1.53 (active)
IRF7 (GeneID 3665) | 6 | 0.286
DAB2IP (GeneID 153090) | 1 | -1.11
DAB2IP (GeneID 153090) | 2 | -1.69 (active)
DAB2IP (GeneID 153090) | 3 | 1.17
DAB2IP (GeneID 153090) | 4 | -0.853
DAB2IP (GeneID 153090) | 5 | -1.27
DAB2IP (GeneID 153090) | 6 | 0.364
IFNAR2 (GeneID 3455) | 1 | -1.08
IFNAR2 (GeneID 3455) | 2 | -1.81 (active)
IFNAR2 (GeneID 3455) | 3 | -2.1 (active)
IFNAR2 (GeneID 3455) | 4 | -0.935
IFNAR2 (GeneID 3455) | 5 | -0.0431
IFNAR2 (GeneID 3455) | 6 | -0.907
MYD88 (GeneID 4615) | 1 | -1.87 (active)
MYD88 (GeneID 4615) | 2 | -0.725
MYD88 (GeneID 4615) | 3 | -2.5 (active)
MYD88 (GeneID 4615) | 4 | 0.232
MYD88 (GeneID 4615) | 5 | 0.949
MYD88 (GeneID 4615) | 6 | 0.975

No new results follow: entries from further up.
gene knocked down | reagent | TNF reporter z-score, replicate mean
ELK1 (GeneID 2002) | 3 | -2.01 (active)
ELK1 (GeneID 2002) | 4 | -0.98
ELK1 (GeneID 2002) | 5 | -0.644
ELK1 (GeneID 2002) | 6 | 0.203
TLR5 (GeneID 7100) | 1 | 0.309
TLR5 (GeneID 7100) | 2 | 1.67 (active)
TLR5 (GeneID 7100) | 3 | -1.21
TLR5 (GeneID 7100) | 4 | -0.712
TLR5 (GeneID 7100) | 5 | 0.374
TLR5 (GeneID 7100) | 6 | -1.53 (active)
MAPKAPK2 (GeneID 9261) | 1 | -1.03
MAPKAPK2 (GeneID 9261) | 2 | -0.506
MAPKAPK2 (GeneID 9261) | 3 | -0.615
